# Literature values as cited in patent US11339442B2, “Methods of detecting insulator dysfunction and oncogene activation for screening, diagnosis and treatment of patients in need thereof” (THE GENERAL HOSPITAL CORPORATION, priority 2015, dated 2022).
# System: cell proliferation
# Conditions: cited from earlier work
structure (smiles),measurement,value
"O=C(CCCCCCC(=O)Nc1ccccc1)NO [SAHA, suberanilohydroxamic acid]",concentrations inhibiting cell proliferation,nanomolar concentrations
